# According to PubChem BioAssay AID1259354 (Paczesny and Yang Labs, IUPUI and University of Michigan, 2018):
# Protein sequences, listed by entry. Tags and fused reporters are not part of them. Lines headed by an entry give the natural chain unless they say otherwise; changes in a name come on top.
# UniProt Q01638: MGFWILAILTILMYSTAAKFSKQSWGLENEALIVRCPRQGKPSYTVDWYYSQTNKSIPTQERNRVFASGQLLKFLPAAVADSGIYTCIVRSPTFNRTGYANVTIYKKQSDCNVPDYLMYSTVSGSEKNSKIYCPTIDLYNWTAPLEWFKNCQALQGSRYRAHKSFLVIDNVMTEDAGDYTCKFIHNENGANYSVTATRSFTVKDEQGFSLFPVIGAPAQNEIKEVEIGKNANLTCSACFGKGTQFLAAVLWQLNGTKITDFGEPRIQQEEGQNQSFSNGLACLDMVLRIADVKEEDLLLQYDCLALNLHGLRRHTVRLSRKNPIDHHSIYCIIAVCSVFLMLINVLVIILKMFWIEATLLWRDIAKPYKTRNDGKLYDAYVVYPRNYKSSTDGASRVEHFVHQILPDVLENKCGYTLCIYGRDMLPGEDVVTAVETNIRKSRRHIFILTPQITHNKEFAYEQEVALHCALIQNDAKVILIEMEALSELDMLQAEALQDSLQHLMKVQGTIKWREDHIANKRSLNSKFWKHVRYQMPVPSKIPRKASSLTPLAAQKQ
# The whole screen tested about 78,000 compounds, of which about 1,800 (2.3%) were called active. Inconclusive results, whose numbers are uncertain, are shown with a selection of clear calls. No stated cut-off is given here; in the data, active means inhibition above about 30%; inconclusive means mostly about 10% to 28%; inactive means weaker than that.
# Target: Interleukin-1 receptor-like 1 (Homo sapiens) (UniProt Q01638)
# Experiment: blocks human ST2 binding to IL-33, primary screen, biochemical, AlphaLISA (AID 1259354)
# Details: AlphaLISA ST2-Fc/biotin-IL-33 interaction, 1 h; at 17 µM, active compounds read high
row,Structure (SMILES),inhibition
1,Cc1cc(C)nc(NC(=O)COc2ccc(C(C)(C)C)cc2)n1,inactive
2,O[C@@H]1C[C@@H](c2nc(Cc3ccccc3)no2)N(Cc2cc3ccccc3o2)C1,inconclusive: 29%
3,C=C1C(=O)O[C@H]2[C@H]1CC/C(C)=C/CC[C@@]1(C)O[C@@H]21,inconclusive: 12%
4,O=C(Cn1cnc2c(cnn2-c2ccc(Cl)cc2)c1=O)N1CCOCC1,inconclusive: 16%
5,CCOc1cc(/C=C2/Sc3ccccc3C2=O)ccc1O,active: 59%
6,COc1ccc(C(C)NC(=O)c2ccc(NC(C)=O)c(C)c2)cc1F (centres undefined),inactive
7,Cc1ccc([N+](=O)[O-])cc1S(=O)(=O)NCCOC12CC3CC(CC(C3)C1)C2,inconclusive: 22%
8,N#Cc1cc2oc3ccccc3c3ccccc3oc2cc1C#N,inactive
9,Nc1nonc1-c1noc(-c2ccc(Br)cc2)n1,inconclusive: 18%
10,CCN1CCCC1CN(CC1CCN(CCOC)CC1)C(=O)c1ccc2cc[nH]c2c1 (centres undefined),inactive
11,CC1=NN(c2ccccc2)C(=O)/C1=C\c1ccc(N(C)C)c(Br)c1,active: 39%
12,O=C(Nc1ccc(Oc2ccccc2F)cc1)C1CCN(C(=O)C2=CCCC2)CC1,inconclusive: 13%
13,COc1ccc(CC(=O)NCc2nc3cccnc3n2Cc2ccc(C)cc2)cc1,inconclusive: 16%
14,NC(=O)C(=O)Nc1ccc2c(c1)OCCO2,inconclusive: 10%
15,CC(NC(=O)c1ccc2c(c1)no[n+]2[O-])c1ccccc1-n1cccn1 (centres undefined),inconclusive: 22%
16,Cc1cccc(NC(=O)CCC2CCN(S(=O)(=O)c3ccsc3)CC2)c1,inconclusive: 13%
17,CCOc1ccccc1N1CCN(Cc2ccsc2)CC1,inactive
18,COc1ccc(C2CC(=O)NC(Nc3nc(C)c4ccc(C)cc4n3)=N2)cc1 (centres undefined),inconclusive: 29%
19,COC(=O)c1c(NC(=O)CSc2ccccn2)sc2c1CCC(C(C)(C)C)C2 (centres undefined),inconclusive: 11%
20,C[C@H]1[C@@H]2[C@@H](O)C([C@H](C)C(=O)N3CCCC3)CC[C@@]2(C)CC[C@@H]1NC(=O)c1ccc(C#N)cc1 (some centres undefined),inactive
21,C=CCOc1ccc(Oc2nc(N(C)C)nc(N(C)C)n2)nn1,inconclusive: 11%
22,O=[N+]([O-])c1cccc2ccc(N3CCCCC3)nc12,active: 30%
23,COC(=O)c1ccc(-n2c(C)cc(C(=O)CN3CC(C)OC(C)C3)c2C)cc1 (centres undefined),inconclusive: 20%

# Random excerpt: 3 records from the list.
row,Structure (SMILES),inhibition
18,COc1ccc(C2CC(=O)NC(Nc3nc(C)c4ccc(C)cc4n3)=N2)cc1 (centres undefined),inconclusive: 29%
1,Cc1cc(C)nc(NC(=O)COc2ccc(C(C)(C)C)cc2)n1,inactive
7,Cc1ccc([N+](=O)[O-])cc1S(=O)(=O)NCCOC12CC3CC(CC(C3)C1)C2,inconclusive: 22%

# Following part.

row,Structure (SMILES),inhibition
1,COc1ccc2nc3sc(C(=O)NCc4ccco4)cc3cc2c1,inconclusive: 22%
2,COc1cc(OC)cc(C(=O)Nc2cccc(-c3nc4ncccc4o3)c2)c1,inactive
3,COc1ccccc1N1CCN(c2ncccc2CNS(C)(=O)=O)CC1,inconclusive: 13%
4,Cc1cccc(-c2nc(SCC(=O)Nc3nccs3)c(-c3ccccc3)[nH]2)c1,inactive
5,COc1ccc(-c2noc(CCC(=O)N(C)c3ccc(Br)cc3)n2)cc1,inactive
6,CCCCN(CC)S(=O)(=O)c1ccc(C(=O)Nc2nnc(-c3ccc(Cl)s3)o2)cc1,inconclusive: 15%
7,Cc1ccc2nccc(C(=O)N3CCCC(Nc4ccc(C)c(C)c4)C3)c2c1 (centres undefined),inconclusive: 11%
8,COc1ccc(OC)c(CNC(=O)Nc2nc(C)ns2)c1,inconclusive: 14%
9,CCN(CC)C(=O)CCc1nc(-c2ccc(C)cc2)no1,inactive
10,Cc1cccc(-c2nnc(-c3nc(NCc4ccc(N(C)C)cc4)c4ccccc4n3)o2)c1,inconclusive: 21%
11,O=C(N[C@H]1CCN2C(=O)c3cc(/C=C/c4ccccc4)ccc3NC(=O)[C@H]12)C1CCCC1,inconclusive: 19%
12,O[C@H]1C[C@@H]2CN(Cc3cccc(OCc4ccccn4)c3)C[C@@H]2C[C@@H]1O,inconclusive: 11%
13,CC(C(=O)NCc1cnn2ccccc12)n1cnc2ccccc21 (centres undefined),inconclusive: 15%
14,CCn1cc(CN(C)c2nc(C)cc(C3CCC3)n2)cn1,inconclusive: 23%
15,COc1cc(OC)cc(C(=O)Nc2cc(N3CCCS3(=O)=O)ccc2C)c1,inconclusive: 13%
16,CCOc1ccc(C(=O)Nc2cccc3nsnc23)cc1,inconclusive: 23%
17,O=C(Nc1cc(Br)ccc1O)c1cc(-c2ccc(Cl)cc2)on1,inconclusive: 23%
18,O=C(NCCc1nc2cccnc2n1C1CCCCC1)NCC1CCCO1 (centres undefined),inconclusive: 11%
19,Cc1[nH]c2ccccc2c1C(C[N+](=O)[O-])c1ccco1 (centres undefined),active: 36%
20,CC(=O)c1ccc(N=c2oc3ccc(Cl)cc3cc2C(N)=O)cc1,inconclusive: 19%
21,Cc1cc(N2CCN(C)CC2)nc(-c2ccccc2O)n1,inconclusive: 10%
22,Cc1cccn2c(=O)c3cc(C(=O)NCCCOC(C)C)n(C)c3nc12,inactive
23,Cc1ccc(CN2C[C@H](O)C[C@H]2c2nc(-c3cccc([N+](=O)[O-])c3)no2)cc1,inactive

# Reformatted: entries from further up
row	Structure (SMILES)	inhibition
1	COc1ccc2nc3sc(C(=O)NCc4ccco4)cc3cc2c1	inconclusive: 22%
4	Cc1cccc(-c2nc(SCC(=O)Nc3nccs3)c(-c3ccccc3)[nH]2)c1	inactive
12	O[C@H]1C[C@@H]2CN(Cc3cccc(OCc4ccccn4)c3)C[C@@H]2C[C@@H]1O	inconclusive: 11%
21	Cc1cc(N2CCN(C)CC2)nc(-c2ccccc2O)n1	inconclusive: 10%

# The list continues:

row,Structure (SMILES),inhibition
1,Cc1ocnc1C(=O)N1CCCN(CC2CC2)C(C(C)C)C1 (centres undefined),inactive
2,O=C(O[C@@H]1O[C@H](CO)[C@@H](OC(=O)c2cc(O)c(O)c(O)c2)[C@H](OC(=O)c2cc(O)c(O)c(O)c2)[C@H]1OC(=O)c1cc(O)c(O)c(O)c1)c1cc(O)c(O)c(O)c1,inconclusive: 10%
3,CN(Cc1cnccn1)C(=O)c1ccc(CSc2ncccn2)o1,inconclusive: 10%
4,CC(C)CN1C(=O)N(Cc2ccccn2)C(=O)C12CCN(Cc1ccc3c(c1)Cc1ccccc1-3)CC2,inconclusive: 10%
5,CC1(C)Cc2nc3sc4c(SCC(N)=O)ncnc4c3cc2CO1,inconclusive: 13%
6,Cc1c(C)n(CC(O)CNCCO)c2ccccc12 (centres undefined),inconclusive: 20%
7,COc1ccccc1C1C2=C(CCCC2=O)Nc2nc(SCc3ccccc3Cl)nn21 (centres undefined),inconclusive: 13%
8,CC1(CNC(=O)COc2ccccc2)C2CC3CC(C2)CC1C3 (centres undefined),inconclusive: 12%
9,CS(=O)(=O)N1CCC(NCCc2cnn(-c3ccccc3)c2)CC1,inconclusive: 11%
10,C=CCN(C(=O)C1CCC(CNS(=O)(=O)c2cccc3nsnc23)CC1)C1CCCCC1 (centres undefined),inconclusive: 16%
11,Cc1ccoc1C(=O)N1CCC(Oc2ccc(C(=O)NCCN(C)C)cc2Cl)CC1,inconclusive: 17%
12,NC(=O)C1CCN(S(=O)(=O)c2ccccc2[N+](=O)[O-])CC1,inactive
13,CC(C)NC(=O)[C@@H]1C[C@H](N)CN1C(=O)CCn1cc(Cl)cn1,inconclusive: 14%
14,NC(=O)[C@H](CC1CCCCC1)NC(=O)[C@@H]1CN(S(=O)(=O)c2ccccc2)CCN1C(=O)C1CCCCC1,inactive
15,COc1ccc(C2CC(=O)N(C)C3=C2C(=O)CC(C)(C)C3)cc1 (centres undefined),inactive
16,Cc1cc(C(=O)N2CCC3(CCCN(Cc4ccc(F)c(F)c4)C3)C2)no1 (centres undefined),inactive
17,CCC(=O)N1CCc2cc(S(=O)(=O)NC(C(=O)Nc3ccc(OC)cc3)C(C)C)ccc21 (centres undefined),inconclusive: 18%
18,CCc1nc(C2CC(=O)Nc3[nH]ncc32)c(C)[nH]1 (centres undefined),inconclusive: 10%
19,CCC(=O)Oc1ccccc1C1OCC2C(C)C=C(C)C1C2C (centres undefined),inactive
20,CC1(C)CC(=O)C2=C(C1)Nc1nc(SCc3ccccc3)nn1C2c1ccncc1 (centres undefined),inconclusive: 18%
21,COCCN1CC(C(=O)NCCC2=CCCCC2)CCC1=O (centres undefined),inconclusive: 19%
22,COCC(=O)NC[C@H]1O[C@@H](CO)[C@@H](O)[C@H]1N1CCC(C)CC1,inconclusive: 14%
23,COCCOc1ccc(-c2noc([C@@H]3CCCN3)n2)cn1,inactive

row,Structure (SMILES),inhibition
1,CN(CCC1CCOCC1)C(=O)C1CCC(=O)N(C2CCCCCC2)C1 (centres undefined),inconclusive: 10%
2,COc1ccc2nc(Nc3ccccc3OC)sc2c1,inconclusive: 15%
3,COC(=O)C1C(=O)NC(SC)=C(C#N)C1c1ccccc1OC (centres undefined),inconclusive: 18%
4,CCC1CCCCN1C(=O)Cn1c(=O)n(-c2ccc(F)c(Cl)c2)c(=O)c2sccc21 (centres undefined),inconclusive: 13%
5,CN(CC(=O)N1CCCC(O)(CO)CC1)Cc1ccccc1F (centres undefined),inconclusive: 10%
6,CC(C)(C)NC(=O)[C@H]1CC[C@H]2[C@@H]3CC[C@H]4NC(=O)C=C[C@]4(C)[C@H]3CC[C@]12C,inconclusive: 11%
7,CCOC(=O)c1nn(CCc2ccc(OC)cc2)c2c1CN(C(=O)c1cc(C)nc(C)n1)CC2,active: 30%
8,COc1ccc(C(=O)N2C[C@@H]3C[C@H](C2)c2c(NS(=O)(=O)c4ccc(C)cc4)ccc(=O)n2C3)cc1,inactive
9,CN(CCC(=O)NCC1Cc2cc(-c3cnc4ccccc4c3)cc(F)c2O1)C1CCS(=O)(=O)C1 (centres undefined),inactive
10,CCOC(=O)C1(CCOc2ccccc2)CCN(Cc2c[nH]c3ccccc23)CC1,inactive
11,CCCCCCCCCCCCCc1cc(=O)c2ccccc2n1C,inactive
12,Cc1ccc(OCC(=O)N2CCN(c3ccc(Cl)cc3[N+](=O)[O-])CC2)cc1,inconclusive: 20%
13,COCCN1CCCC(O)(CN2CCN(Cc3ccncc3)CC2)C1=O (centres undefined),inconclusive: 15%
14,Cn1c(=O)c([N+](=O)[O-])c(N2CCN(C3c4ccccc4-c4ccccc43)CC2)c2ccccc21,inconclusive: 17%
15,COc1ccccc1-c1ccnc(-n2ncc(C(=O)NCc3cccc(F)c3)c2C2CC2)n1,inactive
16,COc1cc(NC(=O)c2ccc(Br)cc2)cc([N+](=O)[O-])c1,inconclusive: 11%
17,CCCc1cc(C(=O)N(CCOC)CC2CCN(Cc3ccccc3F)CC2)no1,inactive
18,COc1ccc(NC(=O)C2(N3C(=O)CC3c3ccc(OC(C)C)cc3)CCCCC2)cc1 (centres undefined),inconclusive: 14%
19,O=C(Nc1ccccc1)O[C@@H]1CO[C@H]2[C@@H]1OC[C@@H]2NC(=O)c1ccc(C(F)(F)F)cc1,inconclusive: 13%
20,Cc1occc1C(=O)NCc1cccnc1N1CCCCCCC1,inconclusive: 17%
